From publication PMC5080790
No constants are given. Whether binding was seen depends on the method and setting. Binding can be weak; no strength is given. For some of these results: In cells and extracts the contact can be indirect.

By UniProt entry, the sequences of proteins in these tests, tags left out. Where a name states a change or a piece, a line headed by the entry shows the natural chain unless it says otherwise.
UniProt Q9Y466: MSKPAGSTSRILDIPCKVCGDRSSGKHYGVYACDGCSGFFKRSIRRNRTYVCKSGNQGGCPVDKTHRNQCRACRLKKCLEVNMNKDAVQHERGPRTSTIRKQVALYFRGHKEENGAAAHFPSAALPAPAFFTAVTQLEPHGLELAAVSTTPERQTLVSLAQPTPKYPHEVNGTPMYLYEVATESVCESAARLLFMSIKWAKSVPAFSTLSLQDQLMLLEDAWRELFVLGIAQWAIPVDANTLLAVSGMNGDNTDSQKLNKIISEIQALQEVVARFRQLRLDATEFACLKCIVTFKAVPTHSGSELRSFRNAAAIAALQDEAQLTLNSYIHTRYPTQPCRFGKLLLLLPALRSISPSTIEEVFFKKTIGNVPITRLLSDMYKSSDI
UniProt P10275: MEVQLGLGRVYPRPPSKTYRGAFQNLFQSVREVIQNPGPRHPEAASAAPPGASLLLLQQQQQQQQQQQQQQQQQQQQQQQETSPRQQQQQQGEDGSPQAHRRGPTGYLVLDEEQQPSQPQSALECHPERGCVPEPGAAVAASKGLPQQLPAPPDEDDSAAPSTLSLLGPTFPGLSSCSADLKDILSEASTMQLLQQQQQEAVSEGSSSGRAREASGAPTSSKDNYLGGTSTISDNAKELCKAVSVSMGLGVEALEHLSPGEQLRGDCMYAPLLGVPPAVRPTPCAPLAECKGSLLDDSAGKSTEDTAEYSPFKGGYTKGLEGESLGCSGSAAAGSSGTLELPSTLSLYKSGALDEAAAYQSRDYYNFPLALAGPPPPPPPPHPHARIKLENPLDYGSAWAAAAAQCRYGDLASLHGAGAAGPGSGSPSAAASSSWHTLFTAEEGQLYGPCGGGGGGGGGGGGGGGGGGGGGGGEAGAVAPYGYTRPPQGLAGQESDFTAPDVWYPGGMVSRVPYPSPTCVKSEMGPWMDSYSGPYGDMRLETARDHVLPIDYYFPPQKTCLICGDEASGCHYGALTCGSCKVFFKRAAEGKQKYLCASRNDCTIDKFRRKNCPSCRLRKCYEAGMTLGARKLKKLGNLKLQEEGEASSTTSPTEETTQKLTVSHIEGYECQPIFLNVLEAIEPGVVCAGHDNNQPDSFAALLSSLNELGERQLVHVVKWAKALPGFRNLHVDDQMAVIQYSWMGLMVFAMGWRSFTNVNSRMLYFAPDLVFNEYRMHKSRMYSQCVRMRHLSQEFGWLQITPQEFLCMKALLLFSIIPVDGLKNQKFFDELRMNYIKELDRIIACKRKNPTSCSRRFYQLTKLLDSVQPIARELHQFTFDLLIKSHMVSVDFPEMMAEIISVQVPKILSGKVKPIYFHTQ
UniProt Q09472: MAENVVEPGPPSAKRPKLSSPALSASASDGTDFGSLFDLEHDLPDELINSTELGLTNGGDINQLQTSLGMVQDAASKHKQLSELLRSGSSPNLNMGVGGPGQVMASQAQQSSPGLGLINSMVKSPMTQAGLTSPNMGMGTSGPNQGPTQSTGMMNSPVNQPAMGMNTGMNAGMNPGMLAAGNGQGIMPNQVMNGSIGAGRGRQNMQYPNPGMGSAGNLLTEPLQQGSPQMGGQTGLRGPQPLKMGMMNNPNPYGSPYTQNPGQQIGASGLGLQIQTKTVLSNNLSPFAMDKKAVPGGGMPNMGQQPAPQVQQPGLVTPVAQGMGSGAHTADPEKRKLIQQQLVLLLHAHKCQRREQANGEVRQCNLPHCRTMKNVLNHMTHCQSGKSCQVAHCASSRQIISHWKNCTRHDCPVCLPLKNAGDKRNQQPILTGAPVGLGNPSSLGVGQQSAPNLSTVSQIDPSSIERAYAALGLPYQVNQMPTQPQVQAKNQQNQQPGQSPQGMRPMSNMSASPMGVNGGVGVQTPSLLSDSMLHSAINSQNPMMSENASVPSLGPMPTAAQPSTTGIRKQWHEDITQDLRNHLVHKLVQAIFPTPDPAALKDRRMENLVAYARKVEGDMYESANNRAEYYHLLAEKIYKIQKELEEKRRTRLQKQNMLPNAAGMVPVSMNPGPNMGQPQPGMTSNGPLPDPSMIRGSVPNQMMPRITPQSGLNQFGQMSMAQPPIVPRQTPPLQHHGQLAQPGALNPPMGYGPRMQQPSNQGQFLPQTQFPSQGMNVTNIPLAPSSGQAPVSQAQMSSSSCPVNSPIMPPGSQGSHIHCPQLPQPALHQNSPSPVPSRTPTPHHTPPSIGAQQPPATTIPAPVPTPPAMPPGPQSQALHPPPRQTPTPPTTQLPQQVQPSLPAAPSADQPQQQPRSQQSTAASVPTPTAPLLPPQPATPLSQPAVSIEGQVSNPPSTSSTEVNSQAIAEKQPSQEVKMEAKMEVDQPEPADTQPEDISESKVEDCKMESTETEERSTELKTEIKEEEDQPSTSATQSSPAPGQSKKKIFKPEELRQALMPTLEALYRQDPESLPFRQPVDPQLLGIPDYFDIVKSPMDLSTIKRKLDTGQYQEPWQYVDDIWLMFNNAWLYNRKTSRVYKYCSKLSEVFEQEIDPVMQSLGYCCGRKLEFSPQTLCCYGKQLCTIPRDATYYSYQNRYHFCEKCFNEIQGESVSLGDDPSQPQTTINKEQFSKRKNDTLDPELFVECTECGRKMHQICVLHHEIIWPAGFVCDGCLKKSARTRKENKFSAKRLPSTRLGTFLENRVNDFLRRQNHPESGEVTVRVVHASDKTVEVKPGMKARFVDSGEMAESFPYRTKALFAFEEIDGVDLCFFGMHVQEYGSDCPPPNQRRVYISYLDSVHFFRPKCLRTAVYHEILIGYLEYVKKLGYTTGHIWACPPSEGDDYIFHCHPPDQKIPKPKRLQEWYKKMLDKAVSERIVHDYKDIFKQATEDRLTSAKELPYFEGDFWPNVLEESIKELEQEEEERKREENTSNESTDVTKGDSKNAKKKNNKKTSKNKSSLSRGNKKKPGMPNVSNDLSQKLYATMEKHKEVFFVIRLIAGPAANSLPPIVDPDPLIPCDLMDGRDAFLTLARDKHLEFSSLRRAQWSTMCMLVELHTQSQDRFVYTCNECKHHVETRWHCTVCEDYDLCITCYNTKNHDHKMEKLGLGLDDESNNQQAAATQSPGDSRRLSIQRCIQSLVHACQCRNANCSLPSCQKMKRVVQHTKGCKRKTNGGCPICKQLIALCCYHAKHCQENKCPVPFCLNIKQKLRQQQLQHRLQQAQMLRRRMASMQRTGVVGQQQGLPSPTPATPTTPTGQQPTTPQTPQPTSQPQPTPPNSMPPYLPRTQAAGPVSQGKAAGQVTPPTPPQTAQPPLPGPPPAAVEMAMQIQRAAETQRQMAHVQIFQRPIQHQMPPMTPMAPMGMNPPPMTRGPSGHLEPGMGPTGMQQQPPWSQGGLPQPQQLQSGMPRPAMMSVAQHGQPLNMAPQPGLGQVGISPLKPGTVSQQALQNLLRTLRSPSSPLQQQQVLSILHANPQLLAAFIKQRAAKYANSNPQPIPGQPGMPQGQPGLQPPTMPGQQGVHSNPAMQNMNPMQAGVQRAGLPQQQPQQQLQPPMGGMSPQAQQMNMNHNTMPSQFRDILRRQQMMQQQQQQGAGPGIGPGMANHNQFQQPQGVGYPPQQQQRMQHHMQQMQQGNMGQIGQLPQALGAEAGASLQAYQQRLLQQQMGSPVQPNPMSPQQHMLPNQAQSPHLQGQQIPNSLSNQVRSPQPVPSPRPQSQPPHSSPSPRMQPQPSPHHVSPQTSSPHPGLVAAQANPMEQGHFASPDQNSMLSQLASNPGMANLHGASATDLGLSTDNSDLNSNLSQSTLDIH

Columns and labels:
GST-NR2E1 (human) = GST-NR2E1 (human) (UniProt Q9Y466); assay: pull-down; GST or GST fusion from E. coli lysate held on glutathione MagBeads, washed, blocked with 1 % BSA/PBS; HEK293 lysate (0.1 % BSA) with the overexpressed protein for two hours at 4 °C; western blot (anti-FLAG, anti-EGFP, anti-myc); only the target purified
[1] = target: T1, Atro box peptide from atrophin-1 (wild type) (Drosophila); assay: peptide or protein array; MARCoNI on Nuclear Receptor PamChip Arrays: peptides immobilised; HEK293 lysate with FLAG-NR2E1LBD (equal amounts, wild type or variant) in TBS with 0.2 % BSA, 0.05 % Tween-20, 50 uM DTT, 2 % DMSO, 25 nM anti-Flag-FITC, 120 cycles (30 s/cycle); further detection with goat anti mouse FITC; three technical replicates; only the target purified
T1 sequence (peptide): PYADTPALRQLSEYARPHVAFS

[2] = target: T2, Mutant Atro box peptide (two leucines to alanines) (Drosophila); assay: as above
T2 sequence (peptide): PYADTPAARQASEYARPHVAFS

Row | binding [1] | binding [2] | Substance | binding (GST-NR2E1 (human))
1 | – | – | EGFP-tagged androgen receptor (AR-EGFP) (from UniProt P10275 1-920) | binds
2 | – | – | Myc-tagged P300 (P300-Myc) (from UniProt Q09472 1-2414) | binds
3 | binds | binds weakly | N-terminal FLAG-tagged NR2E1 ligand-binding domain (FLAG-NR2E1LBD), wild type (from UniProt Q9Y466) (domain or fragment) | –
